Data as given in PMC10140581, “Development and evaluation of novel artemisinin-isatin hybrids with potential anti-leukemic cytotoxicity” (Frontiers in Oncology, 2023).

Legend:
[1] = system: K562 human myeloid leukemia cell line; experiment: MTT antiproliferative assay, K562; assay type: cell-based
Method: (§1) The antiproliferative activity and cytotoxicity of ester tethered ART-isatin hybrids 7a-u against human myeloid leukemia cell lines (K562 CM-0130 purchased from Procell and K562/ADR AW-CELLS-H0187 purchased from AnWei-sci), human acute lymphoblastic leukemia cell line (CCRF-CEM CL-0058 purchased from Procell) as well as cytotoxicity towards normal human peripheral blood mononuclear cells (PBMCs 230470, purchased from Mingzhoubio) were assessed by 3-(4,5-dimethylthiazol-2-yl)-2,5-diphenyltetrazolium bromide (MTT) assay. The antiproliferative activity was expressed by half maximal inhibitory concentration (IC50) values, which were presented in Table 2 .
(§2) K562 CM-0130 (purchased from Procell), K562/ADR AW-CELLS-H0187 (purchased from AnWei-sci) and CCRF-CEM CL-0058 (purchased from Procell) leukemia cell lines (2×10^3) were plated in each well of a 96-well plate and were allowed to adhere and spread for 24 h at 37°C in 5% CO2 for attachment. Medium in wells was replaced after 24 h with fresh medium containing the tested compounds in DMSO (1% v/v) and incubated for 72 h. The ART-isatin hybrids 7a-u along with the positive control Adriamycin and Vorinostat were added to a final concentration of 100 µM, and the cells were cultured for 24 h at 37°C. […]

[2] = system: CCRF-CEM human acute lymphoblastic leukemia cell line; experiment: MTT antiproliferative assay, CCRF-CEM; assay type: cell-based
Method: as §1, §2

IC50 [1]: 3.83 µM | IC50 [2]: 0.46 µM
Compound: O=C(CCCCCCC(=O)Nc1ccccc1)NO [Vorinostat, reference compound]
